According to article PMC6339410:

Assays:
[1] = target: T1, ZDHHC18 (human (endogenous in PN12 and MES23 glioma stem cells)) (UniProt Q9NUE0); assay: affinity purification with mass spectrometry; lysates of PN12 and MES23 glioma stem cells; IP with anti-ZDHHC18 and anti-ZDHHC23 antibodies, IP-protein complex analysed by LC/MS-MS; peaks shared by both cell types and both IPs
T1 sequence: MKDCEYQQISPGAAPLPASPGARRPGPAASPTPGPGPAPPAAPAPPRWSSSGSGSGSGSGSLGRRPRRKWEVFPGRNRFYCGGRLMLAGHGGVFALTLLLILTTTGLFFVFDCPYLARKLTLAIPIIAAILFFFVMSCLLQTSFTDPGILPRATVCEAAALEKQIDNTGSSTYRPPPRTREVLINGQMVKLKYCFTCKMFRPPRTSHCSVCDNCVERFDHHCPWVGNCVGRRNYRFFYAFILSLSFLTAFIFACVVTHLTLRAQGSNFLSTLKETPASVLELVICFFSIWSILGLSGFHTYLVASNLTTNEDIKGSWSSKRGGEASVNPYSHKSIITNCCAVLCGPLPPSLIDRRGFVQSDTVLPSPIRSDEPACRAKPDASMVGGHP

[2] = target: T2, ZDHHC23 (human (endogenous in PN12 and MES23 glioma stem cells)) (UniProt Q8IYP9); assay: as above
T2 sequence: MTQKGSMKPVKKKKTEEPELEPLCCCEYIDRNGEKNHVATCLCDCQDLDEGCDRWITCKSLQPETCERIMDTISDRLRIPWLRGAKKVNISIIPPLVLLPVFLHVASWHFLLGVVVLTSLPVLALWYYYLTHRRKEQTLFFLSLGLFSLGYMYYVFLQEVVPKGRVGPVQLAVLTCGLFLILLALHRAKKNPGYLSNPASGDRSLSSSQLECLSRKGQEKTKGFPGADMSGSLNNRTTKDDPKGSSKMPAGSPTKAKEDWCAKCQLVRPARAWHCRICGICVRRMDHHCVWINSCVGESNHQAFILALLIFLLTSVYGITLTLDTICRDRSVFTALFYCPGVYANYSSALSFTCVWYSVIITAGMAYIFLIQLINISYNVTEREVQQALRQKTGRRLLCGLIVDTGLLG

- binding [1]: binds
- binding [2]: binds
B1: RNF144A (Ring Finger protein 144A) (protein, UniProt P50876 1-292)
chain: MTTTRYRPTWDLALDPLVSCKLCLGEYPVEQMTTIAQCQCIFCTLCLKQYVELLIKEGLETAISCPDAACPKQGHLQENEIECMVAAEIMQRYKKLQFEREVLFDPCRTWCPASTCQAVCQLQDVGLQTPQPVQCKACRMEFCSTCKASWHPGQGCPETMPITFLPGETSAAFKMEEDDAPIKRCPKCKVYIERDEGCAQMMCKNCKHAFCWYCLESLDDDFLLIHYDKGPCRNKLGHSRASVIWHRTQVVGIFAGFGLLLLVASPFLLLATPFVLCCKCKCSKGDDDPLPT

No constants are given. Whether binding was seen depends on the method and setting. In cells and extracts the contact can be indirect. These calls come from enrichment with a bait or labelling near it, and not all partners need be listed.
